Record: PubChem BioAssay AID686937 (Drosophila RNAi Screening Center, 2013)
The deposit covers about 23,000 reagents; shown is an unselected part of those with a known target gene and a result. 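Reduced-secretion tags in replicate 1 do not always agree with the z-scores; no criterion for assigning the tags was given.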 Names joined by + are all predicted targets of the reagent. Not all columns of the deposit are shown. The record does not give: the amount of reagent.

Aim: 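Genes in the fly needed for secretion of protein constitutively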 (primary screen)
Cells: Drosophila S2 cells expressing secreted horseradish peroxidase
Knock-down reagent: long dsRNA against Drosophila genes
Time to read-out: about 5.5 days (5 days dsRNA, then 12 h reporter induction)
Treatment: reporter expression induced after 5 days of dsRNA, read 12 h later; inducer not stated
Read-out: 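After 5 days of dsRNA and 12 h of reporter induction, medium peroxidase read by chemiluminescence and scored as per-plate z-score; higher values mean more reporter released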
Direction: z-score: higher = more reporter secreted into medium

{"target gene":"Sry-delta (Serendipity delta)","DRSC id":"DRSC16869","z-score, replicate 1":0.11}
{"target gene":"CG10581","DRSC id":"DRSC11623","z-score, replicate 1":0.4}
{"target gene":"Syt14 (Synaptotagmin 14)","DRSC id":"DRSC12331","z-score, replicate 1":0.33}
{"target gene":"CG13217","DRSC id":"DRSC06339","z-score, replicate 1":0.24}
{"target gene":"galla-2","DRSC id":"DRSC10936","z-score, replicate 1":0.06}
{"target gene":"galla-2","DRSC id":"DRSC21949","z-score, replicate 1":0.48}
{"target gene":"CG7083","DRSC id":"DRSC11136","z-score, replicate 1":0.39}

3 consecutive reagents already listed, quoted:
{"target gene":"CG13217","DRSC id":"DRSC06339","z-score, replicate 1":0.24}
{"target gene":"galla-2","DRSC id":"DRSC10936","z-score, replicate 1":0.06}
{"target gene":"galla-2","DRSC id":"DRSC21949","z-score, replicate 1":0.48}

Further records:
{"target gene":"dpr1 (defective proboscis extension response 1)","DRSC id":"DRSC05906","z-score, replicate 1":0.58}
{"target gene":"dpr1 (defective proboscis extension response 1)","DRSC id":"DRSC06399","z-score, replicate 1":0.4}
{"target gene":"Or82a (Odorant receptor 82a)","DRSC id":"DRSC11996","z-score, replicate 1":0.8}
{"target gene":"CG18568","DRSC id":"DRSC06768","z-score, replicate 1":0.56}
{"target gene":"Cpr47Ea (Cuticular protein 47Ea)","DRSC id":"DRSC07333","z-score, replicate 1":0.36}
{"target gene":"Nup160 (Nucleoporin 160kD)","DRSC id":"DRSC02774","z-score, replicate 1":-3,"phenotype, replicate 1":"reduced secretion"}
{"target gene":"Rab9D + Rab9Fa + Rab9E","DRSC id":"DRSC19853","z-score, replicate 1":0.2}
{"target gene":"CG7458","DRSC id":"DRSC11829","z-score, replicate 1":-2.97}
{"target gene":"CG7458","DRSC id":"DRSC21340","z-score, replicate 1":-0.02}
